# Source: PubChem BioAssay AID540276 (National Center for Advancing Translational Sciences (NCATS), 2011)
# In all, about 300,000 compounds went through this assay and about 5,400 (1.8%) were called active. Inconclusive means that the source gave no clear call. Such entries were picked first, then a sample of the others. Calls follow the shape of the full dose curve; tested in HEK293 cells. A potency beside an inconclusive call is a rough fit, not a confirmed value.
# Assay: qHTS for inhibitors of binding or entry into cells for Marburg Virus
# Details: Marburg virus pseudotyped entry inhibition, cell reporter; series mostly up to 37.8 µM
# Potency is read from the fitted curve at half-maximal effect.
row,Compound,Potency
1,Cc1ccc(-n2c(C)cc(C(=O)COC(=O)c3c(C)noc3C)c2C)cc1,"inconclusive: 29.1 µM [inhibitor, single point]"
2,Cc1ccc(S(=O)(=O)N2CCCC(C(=O)N3CCN(C)CC3)C2)cc1 (stereo unspecified),inactive
3,FC(F)(F)c1ccccc1NC(=S)N1CCN(c2ncccn2)CC1,"inconclusive: 22.4 µM [inhibitor, single point]"
4,Cc1ccc2c(=O)cc(C(=O)Nc3c(C(=O)c4ccccc4)oc4ccccc34)oc2c1C,"inconclusive: 6.31 µM [activator, single point]"
5,CCC(C)NC(=O)c1ccc2c(c1)N=C(C)c1cc(C)ccc1S2 (stereo unspecified),"inconclusive: 5.01 µM [inhibitor, partial curve, poor fit]"
6,Cc1nn(Cc2cccc(C(=O)Nc3ccn(Cc4ccccc4)n3)c2)c(C)c1[N+](=O)[O-],inactive
7,COc1ccc(-n2c(Cc3cccn3C)nnc2SCC(=O)Nc2ccccc2)cc1,inactive
8,CC(Sc1nc2ccccc2o1)C(=O)O (stereo unspecified),"inconclusive: 20.6 µM [activator, single point]"
9,O=C(Nc1ccc(Cl)c(S(=O)(=O)N2CCOCC2)c1)c1cccs1,"inconclusive: 22.4 µM [inhibitor, single point]"
10,COc1cc(NC(=O)c2cc3ccccc3o2)c(OC)cc1Br,"inconclusive: 35.5 µM [inhibitor, single point]"
11,CC1CCCN(Cc2ccc(OCc3ccccc3)cc2)C1 (stereo unspecified),"inconclusive: 11.2 µM [inhibitor, partial curve, poor fit]"
12,COC(c1ccccc1)c1nnc(CCC(=O)N(C)CCCC2CCCC2)o1 (stereo unspecified),inactive
13,CC(=O)Nc1ccc(NC(=O)c2cnn(-c3ccccc3)c2C2CCN(C(=O)OC(C)(C)C)CC2)cc1,inactive
14,COc1cccc(C(=O)Oc2c(CN3CCOCC3)cc(Cl)c3cccnc23)c1,active: 8.2 µM
15,Cc1cccc(NC(=O)CN(C)S(=O)(=O)c2ccc(Cl)cc2)n1,inactive
16,O=c1c(Cc2ccccc2)c(O)c2cccc3c4c(n1c23)CCCC4,inactive
17,COC(=O)c1ccc(CSc2nnc(N)s2)cc1,"inconclusive: 0.501 µM [activator, full curve, poor fit]"
18,Cc1ccc(C(=O)OCC(=O)N2CCOCC2)c(C)c1,inactive
19,N/C(=N\OC(=O)c1ccccc1Cl)c1ccccc1,"inconclusive: 32.6 µM [inhibitor, single point]"
20,COc1ccccc1-c1cc(C(=O)NCCc2ccccc2)no1,"inconclusive: 3.55 µM [activator, single point]"
21,Cc1c(Cl)cccc1NC(=O)CC(Cc1ccccc1)C(=O)O (stereo unspecified),"inconclusive: 17.8 µM [activator, single point]"
22,CCOC(=O)c1cccc(NC(=O)CSc2nc3cc4ccccc4cc3[nH]2)c1,inactive
23,Cc1cccc(-c2nsc(SCC(=O)NCc3ccco3)n2)c1,inactive
24,O=C(NNC(=O)c1ccccc1-n1cccc1)c1ccc(F)cc1,"inconclusive: 6.31 µM [inhibitor, single point]"
25,Cc1ccc(NC(=O)COc2ccc(S(=O)(=O)N3CCOCC3)cc2)cc1,"inconclusive: 1.3 µM [activator, partial curve, poor fit]"
26,O=c1[nH]c(C2CCN(S(=O)(=O)c3ccc(C(F)(F)F)cc3)CC2)nc2c1nnn2Cc1ccc(F)cc1,"inconclusive: 20 µM [inhibitor, partial curve, poor fit]"

row,Compound,Potency
1,CN(Cc1nc(-c2cccs2)no1)CC(O)c1ccccc1 (stereo unspecified),inactive
2,CC(C)(C)c1nnc(NC(=O)Nc2ccc(Cl)cc2)s1,inactive
3,ClC(/C=N/n1cnnc1)=C/c1ccccc1,"inconclusive: 7.94 µM [inhibitor, partial curve, poor fit]"
4,Cc1c(N=Cc2c(O)n(Cc3ccc(F)cc3)c(=O)[nH]c2=O)c(=O)n(-c2ccccc2)n1C,"inconclusive: 4.11 µM [inhibitor, single point]"
5,Cc1cccc(NC(=O)CSc2nc3ccccc3c3nc(CCc4c(C)n[nH]c4C)nn23)c1,active: 18.3 µM
6,Oc1ccc(Cl)cc1C=NN1CCCCCC1,"inconclusive: 3.55 µM [activator, single point]"
7,CC(C)CC(=O)N1CCN(S(=O)(=O)c2ccc3ccccc3c2)CC1,inactive
8,CC(C)(C)c1ccc(C2=CSC3=NCCN23)cc1,"inconclusive: 11.2 µM [inhibitor, partial curve, poor fit]"
9,Cc1cc2nn(-c3ccc(F)cc3)nc2cc1N,active: 5.01 µM
10,C=CCNC(=S)Nc1ccccc1,inactive
11,Cc1[nH]c2ccccc2c1C(=O)C(=O)NC1CC(=O)N(c2ccc(F)cc2)C1 (stereo unspecified),"inconclusive: 0.251 µM [inhibitor, full curve, poor fit]"
12,COc1ccc(CC(=O)Nc2ccc(F)c(F)c2F)cc1S(=O)(=O)N1CCOCC1,"inconclusive: 35.5 µM [inhibitor, single point]"
13,CC(=NCCc1c[nH]c2ccccc12)c1c(O)n(Cc2ccccc2)c(=O)[nH]c1=O,"inconclusive: 15.8 µM [inhibitor, single point]"
14,O=C(NNC(=O)c1sc2cccc(Cl)c2c1Cl)NC1CCCCC1,"inconclusive: 14.1 µM [inhibitor, partial curve, poor fit]"
15,COc1ccccc1-c1nc(S(=O)(=O)c2ccccc2)c(N2CCC(C)CC2)o1,"inconclusive: 22.4 µM [inhibitor, single point]"
16,Cc1ccnc(SCC(=O)N2CCc3ccccc3C2)n1,inactive
17,COC(=O)Cn1ncc(N(C)Cc2ccccc2)c(Cl)c1=O,"inconclusive: 7.08 µM [activator, partial curve]"
18,O=C(COc1ncnc2sccc12)NC1CCS(=O)(=O)C1 (stereo unspecified),inactive
19,c1nc(NCCN2CCOCC2)c2sc3nc(N4CCOCC4)c4c(c3c2n1)CCC4,"inconclusive: 0.112 µM [inhibitor, full curve, poor fit]"
20,CCOC(=O)C1CCN(C(=O)COc2ccc([N+](=O)[O-])cc2)CC1,inactive
21,Cc1onc(-c2ccccc2)c1C(=O)Nc1ccc(Br)cc1Cl,inactive
22,Cc1cc(-c2nnc(CCC(=O)NCc3cccc(C(F)(F)F)c3)o2)no1,"inconclusive: 12.6 µM [activator, partial curve, poor fit]"
23,Cc1ccc(NC(=S)N2CCCCC2)cc1C,inactive
24,Cc1cccc(NC(=O)C(C)n2cc([N+](=O)[O-])cn2)n1 (stereo unspecified),"inconclusive: 4.47 µM [inhibitor, partial curve, poor fit]"
25,O=C(NC1CCCN(Cc2ccc(Cl)cc2)C1)c1cccc(N2CCCC2=O)c1 (stereo unspecified),inactive
26,O=C(c1c[nH]c(C(=O)N2CCN(c3ccccc3F)CC2)c1)c1cccc(Cl)c1Cl,"inconclusive: 7.3 µM [inhibitor, partial curve, poor fit]"

# Some of these compounds in order of formula weight, smallest number first.
row,Compound,Potency
5,CCC(C)NC(=O)c1ccc2c(c1)N=C(C)c1cc(C)ccc1S2 (stereo unspecified),"inconclusive: 5.01 µM [inhibitor, partial curve, poor fit]"
14,O=C(NNC(=O)c1sc2cccc(Cl)c2c1Cl)NC1CCCCC1,"inconclusive: 14.1 µM [inhibitor, partial curve, poor fit]"
19,c1nc(NCCN2CCOCC2)c2sc3nc(N4CCOCC4)c4c(c3c2n1)CCC4,"inconclusive: 0.112 µM [inhibitor, full curve, poor fit]"
4,Cc1c(N=Cc2c(O)n(Cc3ccc(F)cc3)c(=O)[nH]c2=O)c(=O)n(-c2ccccc2)n1C,"inconclusive: 4.11 µM [inhibitor, single point]"

# (cont.)

row,Compound,Potency
1,CCSc1cc(N2CCCC2)nc(-c2cccc(C)c2)n1,"inconclusive: 0.282 µM [activator, full curve, poor fit]"
2,COc1ccc(C(=O)NC(C)CCc2ccccc2)c(O)c1 (stereo unspecified),"inconclusive: 7.94 µM [inhibitor, partial curve, poor fit]"
3,CCOC(=O)c1ccc(OCC(=O)c2ccc(O)cc2O)cc1,inactive
4,C=CCn1c(CNc2ccc(C)cc2)nnc1SCC(=O)N/N=C/c1ccc(O)cc1,"inconclusive: 35.5 µM [activator, partial curve, poor fit]"
5,COc1ccc(CN=C2NN=C(c3ccccc3)CS2)cc1,"inconclusive: 17.8 µM [inhibitor, single point]"
6,COC(=O)COc1ccc(S(=O)(=O)Nc2ccc3c(c2)OCCO3)cc1Cl,inactive
7,CN(CC(=O)Nc1ccc(F)cc1)C(=O)CCc1ccccc1,inactive
8,O=C(O)c1ccc(N2C(=O)c3cccnc3C2=O)cc1,inactive
9,O=C1C(c2ccccc2)SC(=Nc2ccccc2)N1S(=O)(=O)c1ccccc1 (stereo unspecified),inactive
10,CCCCOc1ccc(C2(C)NC(=O)NC2=O)cc1 (stereo unspecified),inactive
11,O=C(Nc1ccc2c(c1)OCO2)c1cnc2n(c1=O)CCS2,inactive
12,CCOc1ccccc1N(C)C(=O)c1cn(C)c(=O)c2ccccc12,"inconclusive: 7.94 µM [inhibitor, partial curve]"
13,O=C1CN(C(=O)COc2ccc(Cl)cc2)C(c2ccc(F)cc2)c2cc(Br)ccc2N1 (stereo unspecified),"inconclusive: 35.5 µM [inhibitor, single point]"
14,CCOC(=O)c1nc2cc3n(c(C)c-2c1C)C(C)C(C)=C3C (stereo unspecified),inactive
15,Cc1ccccc1-n1nnnc1SCC(N)=O,"inconclusive: 0.562 µM [activator, partial curve, poor fit]"
16,CCCN(CCO)CCCc1ccccc1,inactive
17,CC(C)(C)NC(=O)C1CCN(S(=O)(=O)c2ccc(Br)cc2)CC1,inactive
18,CCOC(=O)c1ccc(NC(=O)CSc2nc(-c3cccs3)cc(C(F)(F)F)c2C#N)cc1,inactive
19,Cc1nn(C)cc1C=NCCOCc1ccccc1,"inconclusive: 29.1 µM [inhibitor, single point]"
20,CC(C)(C)c1ccc(C(=O)/C(C#N)=C/c2cccs2)cc1,inactive
21,CC(C)N(CCNC(=O)C1CCCN(c2ncnc3c2nc2n3CCCCC2)C1)Cc1ccccc1 (stereo unspecified),"inconclusive: 10 µM [inhibitor, partial curve]"
22,CCOC(=O)CC1=NN(c2ccccc2)C(=O)/C1=C\c1ccc(OC)cc1OC,"inconclusive: 0.731 µM [inhibitor, partial curve, poor fit]"
23,COc1ccc2ccccc2c1C1NC(=O)c2ccccc2N1 (stereo unspecified),inactive
24,Cc1ccc(N(CC(=O)NCc2ccco2)C(=O)CNS(=O)(=O)c2ccc(F)cc2)c(C)c1,"inconclusive: 0.562 µM [inhibitor, partial curve, poor fit]"
